Laboratory results taken from paper PMC11003700.

Chains of the proteins cited; added tags and fusions are not shown.
UniProt P04198: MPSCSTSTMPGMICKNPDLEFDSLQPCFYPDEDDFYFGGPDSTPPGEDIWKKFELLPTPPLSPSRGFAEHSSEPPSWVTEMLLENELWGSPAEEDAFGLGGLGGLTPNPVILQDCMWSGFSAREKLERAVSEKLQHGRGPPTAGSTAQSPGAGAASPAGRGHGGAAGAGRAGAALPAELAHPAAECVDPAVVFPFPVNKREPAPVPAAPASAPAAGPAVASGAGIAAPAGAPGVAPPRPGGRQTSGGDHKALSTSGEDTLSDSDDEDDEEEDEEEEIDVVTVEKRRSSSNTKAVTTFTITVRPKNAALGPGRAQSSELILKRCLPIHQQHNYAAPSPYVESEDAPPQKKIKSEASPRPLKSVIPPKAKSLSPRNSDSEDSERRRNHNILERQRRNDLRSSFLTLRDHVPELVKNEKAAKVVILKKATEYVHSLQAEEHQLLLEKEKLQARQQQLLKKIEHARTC
UniProt P61244: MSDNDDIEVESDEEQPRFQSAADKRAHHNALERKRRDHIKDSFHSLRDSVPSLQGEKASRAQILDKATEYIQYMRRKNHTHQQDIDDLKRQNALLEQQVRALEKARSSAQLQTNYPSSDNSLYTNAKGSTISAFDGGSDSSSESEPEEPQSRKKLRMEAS
UniProt Q02880: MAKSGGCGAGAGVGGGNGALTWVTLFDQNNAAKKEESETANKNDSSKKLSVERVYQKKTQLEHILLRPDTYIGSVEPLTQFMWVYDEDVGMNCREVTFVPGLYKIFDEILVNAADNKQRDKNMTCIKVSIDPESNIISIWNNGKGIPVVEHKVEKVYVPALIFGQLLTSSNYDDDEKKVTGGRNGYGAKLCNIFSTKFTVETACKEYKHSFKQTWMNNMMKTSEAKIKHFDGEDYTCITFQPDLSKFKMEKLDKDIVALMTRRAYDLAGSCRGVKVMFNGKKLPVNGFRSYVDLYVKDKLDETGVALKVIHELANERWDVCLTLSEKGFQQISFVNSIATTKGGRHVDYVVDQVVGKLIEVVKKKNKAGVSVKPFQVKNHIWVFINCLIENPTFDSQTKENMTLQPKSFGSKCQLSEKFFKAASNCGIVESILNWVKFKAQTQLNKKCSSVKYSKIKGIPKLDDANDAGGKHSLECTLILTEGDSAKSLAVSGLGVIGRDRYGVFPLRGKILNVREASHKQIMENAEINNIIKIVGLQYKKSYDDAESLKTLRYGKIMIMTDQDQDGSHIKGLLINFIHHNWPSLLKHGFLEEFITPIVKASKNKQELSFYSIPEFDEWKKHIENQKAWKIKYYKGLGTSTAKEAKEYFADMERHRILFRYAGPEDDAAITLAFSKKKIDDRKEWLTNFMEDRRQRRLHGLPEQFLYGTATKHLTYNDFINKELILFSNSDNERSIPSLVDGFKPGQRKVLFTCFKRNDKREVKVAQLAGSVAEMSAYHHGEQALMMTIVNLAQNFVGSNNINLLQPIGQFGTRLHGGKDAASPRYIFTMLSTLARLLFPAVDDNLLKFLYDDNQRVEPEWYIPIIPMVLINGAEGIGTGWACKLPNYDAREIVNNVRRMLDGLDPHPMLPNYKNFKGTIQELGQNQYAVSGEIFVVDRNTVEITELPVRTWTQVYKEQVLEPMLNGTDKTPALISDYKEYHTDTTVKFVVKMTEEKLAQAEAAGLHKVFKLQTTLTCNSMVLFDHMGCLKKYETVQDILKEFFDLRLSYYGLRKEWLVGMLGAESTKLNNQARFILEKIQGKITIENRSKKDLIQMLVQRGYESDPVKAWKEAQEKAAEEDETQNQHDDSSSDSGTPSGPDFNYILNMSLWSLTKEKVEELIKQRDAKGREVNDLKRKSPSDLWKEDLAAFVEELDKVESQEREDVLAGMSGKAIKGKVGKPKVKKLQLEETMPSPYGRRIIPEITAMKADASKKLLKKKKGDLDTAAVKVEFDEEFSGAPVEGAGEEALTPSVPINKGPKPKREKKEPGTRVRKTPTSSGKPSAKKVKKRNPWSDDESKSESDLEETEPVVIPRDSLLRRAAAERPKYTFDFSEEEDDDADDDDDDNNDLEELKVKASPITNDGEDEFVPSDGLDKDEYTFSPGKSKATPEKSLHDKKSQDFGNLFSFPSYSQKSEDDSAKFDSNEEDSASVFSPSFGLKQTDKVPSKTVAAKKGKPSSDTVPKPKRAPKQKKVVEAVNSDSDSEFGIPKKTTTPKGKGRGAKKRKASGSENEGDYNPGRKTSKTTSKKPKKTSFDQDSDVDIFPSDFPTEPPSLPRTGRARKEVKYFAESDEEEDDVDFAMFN
UniProt Q9Y4A5: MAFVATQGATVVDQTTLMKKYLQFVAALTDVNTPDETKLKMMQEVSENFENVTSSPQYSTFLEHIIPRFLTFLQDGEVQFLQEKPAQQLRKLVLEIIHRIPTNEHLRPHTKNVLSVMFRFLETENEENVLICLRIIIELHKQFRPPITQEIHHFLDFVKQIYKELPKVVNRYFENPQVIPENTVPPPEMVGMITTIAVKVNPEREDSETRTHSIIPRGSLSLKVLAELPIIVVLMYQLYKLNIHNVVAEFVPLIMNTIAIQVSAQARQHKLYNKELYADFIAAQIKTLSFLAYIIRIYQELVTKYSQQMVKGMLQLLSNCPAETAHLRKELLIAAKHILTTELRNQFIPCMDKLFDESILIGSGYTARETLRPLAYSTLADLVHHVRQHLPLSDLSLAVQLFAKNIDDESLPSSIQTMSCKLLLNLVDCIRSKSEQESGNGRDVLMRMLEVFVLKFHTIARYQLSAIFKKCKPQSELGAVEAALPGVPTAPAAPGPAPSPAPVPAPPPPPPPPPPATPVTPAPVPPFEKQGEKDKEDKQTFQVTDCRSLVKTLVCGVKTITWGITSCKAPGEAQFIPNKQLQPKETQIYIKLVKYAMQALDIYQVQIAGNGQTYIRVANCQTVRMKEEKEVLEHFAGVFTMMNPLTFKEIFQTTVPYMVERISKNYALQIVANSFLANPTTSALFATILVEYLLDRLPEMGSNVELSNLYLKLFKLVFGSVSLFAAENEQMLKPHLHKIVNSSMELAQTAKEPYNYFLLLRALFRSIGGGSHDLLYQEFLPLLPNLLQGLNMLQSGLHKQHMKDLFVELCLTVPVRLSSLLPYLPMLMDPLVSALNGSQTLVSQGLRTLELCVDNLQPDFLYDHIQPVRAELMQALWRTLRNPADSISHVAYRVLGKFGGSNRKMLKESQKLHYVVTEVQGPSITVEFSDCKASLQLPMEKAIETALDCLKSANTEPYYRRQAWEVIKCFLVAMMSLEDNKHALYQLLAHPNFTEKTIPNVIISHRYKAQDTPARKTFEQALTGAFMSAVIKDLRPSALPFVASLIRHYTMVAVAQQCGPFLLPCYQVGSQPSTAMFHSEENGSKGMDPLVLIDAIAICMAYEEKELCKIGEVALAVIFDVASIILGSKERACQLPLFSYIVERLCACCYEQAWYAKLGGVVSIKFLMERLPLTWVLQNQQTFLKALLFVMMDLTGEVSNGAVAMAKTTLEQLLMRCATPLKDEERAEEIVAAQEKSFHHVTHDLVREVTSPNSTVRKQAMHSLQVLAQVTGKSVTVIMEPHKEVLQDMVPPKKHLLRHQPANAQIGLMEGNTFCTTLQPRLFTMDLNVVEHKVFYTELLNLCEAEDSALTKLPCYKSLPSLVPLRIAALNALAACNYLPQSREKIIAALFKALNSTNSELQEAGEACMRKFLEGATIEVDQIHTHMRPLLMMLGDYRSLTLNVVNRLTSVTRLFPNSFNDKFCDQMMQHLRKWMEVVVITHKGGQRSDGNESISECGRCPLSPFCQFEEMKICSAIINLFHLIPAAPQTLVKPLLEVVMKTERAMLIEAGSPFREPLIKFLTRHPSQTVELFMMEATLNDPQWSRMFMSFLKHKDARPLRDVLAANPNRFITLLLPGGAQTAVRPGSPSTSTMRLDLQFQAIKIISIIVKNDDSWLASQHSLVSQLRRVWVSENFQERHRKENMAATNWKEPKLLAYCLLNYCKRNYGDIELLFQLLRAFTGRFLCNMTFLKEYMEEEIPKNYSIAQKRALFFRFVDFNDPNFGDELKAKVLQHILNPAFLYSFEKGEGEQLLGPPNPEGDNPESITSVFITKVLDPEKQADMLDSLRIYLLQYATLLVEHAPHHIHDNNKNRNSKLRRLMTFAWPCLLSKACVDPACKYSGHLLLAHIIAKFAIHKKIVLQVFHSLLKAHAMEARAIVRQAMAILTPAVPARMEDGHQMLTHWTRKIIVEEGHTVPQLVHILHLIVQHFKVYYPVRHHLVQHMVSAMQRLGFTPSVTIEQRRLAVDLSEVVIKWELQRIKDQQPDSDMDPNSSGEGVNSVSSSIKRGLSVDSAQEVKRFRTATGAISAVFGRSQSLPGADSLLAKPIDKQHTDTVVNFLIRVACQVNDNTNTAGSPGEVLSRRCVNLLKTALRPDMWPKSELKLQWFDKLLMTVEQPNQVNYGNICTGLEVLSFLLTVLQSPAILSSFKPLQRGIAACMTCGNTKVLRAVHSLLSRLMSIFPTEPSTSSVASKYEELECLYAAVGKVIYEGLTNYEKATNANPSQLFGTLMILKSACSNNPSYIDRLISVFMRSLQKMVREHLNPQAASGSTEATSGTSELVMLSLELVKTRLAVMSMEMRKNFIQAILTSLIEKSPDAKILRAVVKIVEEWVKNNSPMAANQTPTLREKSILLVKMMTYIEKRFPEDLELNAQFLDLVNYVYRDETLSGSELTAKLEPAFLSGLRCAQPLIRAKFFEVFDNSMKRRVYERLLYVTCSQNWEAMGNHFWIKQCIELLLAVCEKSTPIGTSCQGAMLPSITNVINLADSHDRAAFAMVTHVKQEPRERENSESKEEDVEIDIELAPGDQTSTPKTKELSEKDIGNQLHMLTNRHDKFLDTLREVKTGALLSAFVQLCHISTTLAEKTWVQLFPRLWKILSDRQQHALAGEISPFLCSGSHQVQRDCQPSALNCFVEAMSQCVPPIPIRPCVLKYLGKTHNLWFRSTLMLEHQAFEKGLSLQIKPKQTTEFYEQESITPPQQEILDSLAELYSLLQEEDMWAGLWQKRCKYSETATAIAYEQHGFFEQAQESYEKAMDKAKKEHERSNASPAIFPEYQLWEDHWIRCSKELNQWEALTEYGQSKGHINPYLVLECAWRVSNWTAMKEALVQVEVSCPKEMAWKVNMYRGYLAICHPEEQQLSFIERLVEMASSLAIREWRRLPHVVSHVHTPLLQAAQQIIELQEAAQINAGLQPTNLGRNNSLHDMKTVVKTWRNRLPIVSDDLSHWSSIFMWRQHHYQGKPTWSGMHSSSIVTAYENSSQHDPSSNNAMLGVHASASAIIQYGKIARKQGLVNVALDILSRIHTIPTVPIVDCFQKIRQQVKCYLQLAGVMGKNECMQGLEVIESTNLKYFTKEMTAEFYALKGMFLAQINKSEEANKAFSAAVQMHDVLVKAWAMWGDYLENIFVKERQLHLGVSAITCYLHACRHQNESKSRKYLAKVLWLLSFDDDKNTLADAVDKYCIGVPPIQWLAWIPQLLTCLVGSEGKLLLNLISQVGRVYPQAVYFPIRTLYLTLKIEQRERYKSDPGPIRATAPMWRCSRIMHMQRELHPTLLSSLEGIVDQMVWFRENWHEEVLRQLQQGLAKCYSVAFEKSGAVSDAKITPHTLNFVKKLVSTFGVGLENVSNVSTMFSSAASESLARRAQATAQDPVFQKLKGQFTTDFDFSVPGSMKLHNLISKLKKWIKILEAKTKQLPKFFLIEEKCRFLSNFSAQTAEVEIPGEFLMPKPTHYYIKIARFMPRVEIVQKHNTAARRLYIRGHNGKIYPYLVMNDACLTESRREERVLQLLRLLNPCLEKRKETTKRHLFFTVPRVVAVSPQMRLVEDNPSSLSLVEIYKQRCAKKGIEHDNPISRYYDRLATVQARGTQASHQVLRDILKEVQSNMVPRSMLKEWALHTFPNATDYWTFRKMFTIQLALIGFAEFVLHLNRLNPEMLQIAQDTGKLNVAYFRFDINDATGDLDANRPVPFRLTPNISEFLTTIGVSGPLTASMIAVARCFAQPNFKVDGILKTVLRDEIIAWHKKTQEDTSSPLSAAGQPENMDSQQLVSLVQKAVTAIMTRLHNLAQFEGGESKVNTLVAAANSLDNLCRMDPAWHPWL

What follows are substances tested against MYCN (N-Myc) (human (endogenous in IMR32)) (UniProt P04198) (assay: affinity purification with mass spectrometry; endogenous MYCN immunoprecipitated from IMR32 lysate (20 mg) with two different MYCN antibodies or normal IgG on Dynabeads M-280 sheep anti-mouse IgG; lysis buffer 50 mM Tris-HCl pH 7.5, 137 mM NaCl, 1 mM DTT, 1 mM EDTA, 0.5% Triton X-100; 4°C, 4 h; no Benzonase; differentially pulled-down gel bands sequenced by mass spectrometry).

binding | Substance
binds | MAX (from UniProt P61244 1-160)
binds | topoisomerase IIB (TOP2B) (from UniProt Q02880 1-1626) (enzyme)
binds | TRRAP (from UniProt Q9Y4A5 1-3859)
binds | G9a (histone methyltransferase, also known as EHMT2) (from UniProt Q96KQ7 1-1210) (enzyme)

These are yes or no findings as the source states them, for the method shown. In cells and extracts the contact can be indirect. Here binding means that the protein was enriched with, or labelled near, the bait; the list need not be complete.
